The supplement of paper PMC10849652
This is one part of the list.

By UniProt entry, the sequences of proteins in these tests, tags left out. Where a name states a change or a piece, a line headed by the entry shows the natural chain unless it says otherwise.
UniProt O94880: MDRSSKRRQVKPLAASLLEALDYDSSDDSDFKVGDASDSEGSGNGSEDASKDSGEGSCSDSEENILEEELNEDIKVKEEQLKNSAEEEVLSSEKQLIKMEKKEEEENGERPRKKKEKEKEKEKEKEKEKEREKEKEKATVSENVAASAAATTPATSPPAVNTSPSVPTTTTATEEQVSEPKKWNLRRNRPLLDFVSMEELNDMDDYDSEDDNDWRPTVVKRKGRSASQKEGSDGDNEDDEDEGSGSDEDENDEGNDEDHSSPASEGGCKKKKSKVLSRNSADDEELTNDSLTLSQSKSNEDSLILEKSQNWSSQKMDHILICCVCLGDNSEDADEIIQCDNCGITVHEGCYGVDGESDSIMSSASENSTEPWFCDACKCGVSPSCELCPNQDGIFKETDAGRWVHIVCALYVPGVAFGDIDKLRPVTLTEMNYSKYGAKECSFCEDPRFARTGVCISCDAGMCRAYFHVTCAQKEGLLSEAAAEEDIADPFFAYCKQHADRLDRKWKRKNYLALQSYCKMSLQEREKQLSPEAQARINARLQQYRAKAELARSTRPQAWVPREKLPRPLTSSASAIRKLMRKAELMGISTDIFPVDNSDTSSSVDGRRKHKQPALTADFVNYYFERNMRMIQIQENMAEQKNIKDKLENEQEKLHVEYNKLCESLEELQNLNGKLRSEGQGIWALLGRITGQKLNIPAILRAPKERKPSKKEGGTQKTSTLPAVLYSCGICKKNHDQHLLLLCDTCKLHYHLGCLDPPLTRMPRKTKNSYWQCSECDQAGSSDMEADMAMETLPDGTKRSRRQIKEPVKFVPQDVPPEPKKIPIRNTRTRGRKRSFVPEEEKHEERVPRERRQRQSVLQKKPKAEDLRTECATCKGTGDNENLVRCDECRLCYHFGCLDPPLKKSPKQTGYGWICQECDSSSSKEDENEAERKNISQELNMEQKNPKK
UniProt Q9BSJ6: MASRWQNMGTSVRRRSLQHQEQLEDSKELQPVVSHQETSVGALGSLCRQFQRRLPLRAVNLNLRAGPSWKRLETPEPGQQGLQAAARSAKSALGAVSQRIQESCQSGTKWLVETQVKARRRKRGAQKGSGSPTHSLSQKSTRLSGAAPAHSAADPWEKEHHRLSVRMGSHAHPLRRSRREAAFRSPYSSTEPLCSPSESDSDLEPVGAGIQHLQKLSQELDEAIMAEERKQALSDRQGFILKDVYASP
UniProt Q9H7P9: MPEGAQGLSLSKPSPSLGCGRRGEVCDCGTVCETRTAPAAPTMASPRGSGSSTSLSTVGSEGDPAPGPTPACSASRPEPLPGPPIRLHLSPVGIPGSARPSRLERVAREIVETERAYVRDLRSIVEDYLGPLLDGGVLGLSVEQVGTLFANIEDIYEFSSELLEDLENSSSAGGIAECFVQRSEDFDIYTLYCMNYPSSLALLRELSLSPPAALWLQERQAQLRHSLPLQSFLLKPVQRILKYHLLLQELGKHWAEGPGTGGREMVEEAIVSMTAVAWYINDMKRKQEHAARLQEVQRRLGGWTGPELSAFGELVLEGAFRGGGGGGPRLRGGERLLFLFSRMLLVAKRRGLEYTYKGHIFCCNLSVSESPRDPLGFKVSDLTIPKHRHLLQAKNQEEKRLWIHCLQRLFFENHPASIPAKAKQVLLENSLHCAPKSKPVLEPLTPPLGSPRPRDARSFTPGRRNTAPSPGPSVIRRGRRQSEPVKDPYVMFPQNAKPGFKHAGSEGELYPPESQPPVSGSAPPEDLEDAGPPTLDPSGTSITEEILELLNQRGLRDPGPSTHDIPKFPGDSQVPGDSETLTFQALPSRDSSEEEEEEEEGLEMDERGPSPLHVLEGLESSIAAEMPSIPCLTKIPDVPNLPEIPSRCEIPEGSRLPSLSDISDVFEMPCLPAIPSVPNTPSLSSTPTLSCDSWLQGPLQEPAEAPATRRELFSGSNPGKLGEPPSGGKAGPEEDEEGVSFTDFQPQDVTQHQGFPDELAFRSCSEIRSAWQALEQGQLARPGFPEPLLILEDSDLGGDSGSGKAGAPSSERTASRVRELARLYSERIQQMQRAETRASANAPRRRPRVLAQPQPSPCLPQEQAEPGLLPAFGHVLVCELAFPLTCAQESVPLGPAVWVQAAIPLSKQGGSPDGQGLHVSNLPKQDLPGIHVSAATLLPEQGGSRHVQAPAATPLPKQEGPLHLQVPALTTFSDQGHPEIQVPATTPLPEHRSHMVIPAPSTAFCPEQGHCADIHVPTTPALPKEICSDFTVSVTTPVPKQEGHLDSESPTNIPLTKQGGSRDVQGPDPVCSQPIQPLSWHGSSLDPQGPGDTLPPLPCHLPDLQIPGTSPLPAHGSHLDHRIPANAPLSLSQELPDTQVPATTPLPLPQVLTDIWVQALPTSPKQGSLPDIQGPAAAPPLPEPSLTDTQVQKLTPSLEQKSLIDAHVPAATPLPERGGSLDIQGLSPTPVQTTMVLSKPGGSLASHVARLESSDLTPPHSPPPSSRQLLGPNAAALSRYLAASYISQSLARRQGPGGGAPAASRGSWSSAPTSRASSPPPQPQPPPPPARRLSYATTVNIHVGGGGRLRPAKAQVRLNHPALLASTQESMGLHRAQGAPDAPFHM
UniProt Q92521: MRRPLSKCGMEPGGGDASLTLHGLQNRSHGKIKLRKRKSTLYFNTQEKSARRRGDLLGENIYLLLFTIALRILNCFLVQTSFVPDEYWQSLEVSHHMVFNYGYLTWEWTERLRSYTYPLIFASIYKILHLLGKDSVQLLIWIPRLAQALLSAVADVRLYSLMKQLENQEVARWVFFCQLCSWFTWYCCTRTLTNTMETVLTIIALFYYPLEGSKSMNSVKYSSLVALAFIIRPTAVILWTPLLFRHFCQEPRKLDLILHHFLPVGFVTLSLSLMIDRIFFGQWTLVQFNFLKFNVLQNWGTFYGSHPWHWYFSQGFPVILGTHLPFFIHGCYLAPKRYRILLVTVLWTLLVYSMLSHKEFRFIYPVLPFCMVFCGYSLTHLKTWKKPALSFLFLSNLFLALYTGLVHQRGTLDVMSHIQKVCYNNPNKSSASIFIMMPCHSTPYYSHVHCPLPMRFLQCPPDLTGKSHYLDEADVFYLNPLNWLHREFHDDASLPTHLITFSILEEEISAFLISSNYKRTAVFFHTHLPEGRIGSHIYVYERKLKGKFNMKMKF

How the values were obtained:
Experiment in all cases: log2 fold change, soluble protein after heating vs DMSO (PISA); higher = thermal stabilisation; K562 lysate, 10 uM; active = over 0.2 and 3.5 SD of the protein, either way, in both replicates (recomputed)
[1] = compound: NCC(=O)Nc1ccc(-n2nc(C(F)(F)F)cc2-c2ccc3c(ccc4ccccc43)c2)cc1
In short: (§1)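 A 30 min treatment with 10 μM compound was applied to crude K562 extract at 1 mg/mL protein in PBS pH 7.4 with 1 mM MgCl2. Heating for 3 min spanned 48°C-58°C, after which aliquots were pooled, adjusted to 0.5% NP-40 at 4°C and spun at 21,000xg for 90 min. TMTpro 16plex LC-MS/MS of the supernatant, with channel sums equalised, gave values recorded as log-two fold change in thermal stability against solvent controls, from duplicates.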

[2] = compound: c1cn2cc(-c3ccc4cn[nH]c4c3)nc(Nc3ccc(N4CCOCC4)cc3)c2n1 [entospletinib]
In short: as §1

[3] = compound: O=C(CCCCCCC(=O)Nc1ccccc1)NO [vorinostat]
In short: as §1

[4] = compound: O=C(O)c1ccc2c(c1)nc(Nc1cccc(Cl)c1)c1ccncc12 [silmitasertib]
In short: as §1

[5] = compound: O=C1NC(=O)C(c2cnc3ccccn23)=C1c1cn2c3c(cc(F)cc13)CN(C(=O)N1CCCCC1)CC2
In short: as §1

Target	log2 fold change [1]	log2 fold change [2]	log2 fold change [3]	log2 fold change [4]	log2 fold change [5]
PHF14 (UniProt O94880)	inactive: -0.062	inactive: 0.039	–	–	–
PIMREG (UniProt Q9BSJ6)	–	–	inactive: -0.187	inactive: 0.091	inactive: -0.14
PLEKHG2 (UniProt Q9H7P9)	–	inactive: 0.178	inactive: -0.14	inactive: 0.039	–
PIGB (UniProt Q92521)	inactive: -0.159	inactive: -0.26	–	–	inactive: 0
